Reference: PMC10012474
These are yes or no findings as the source states them, for the method shown. Binding seen in cells or lysates may run through a third protein. Some results given as binding are weak or reduced against the parent protein; the word gives no strength.

The chains behind the UniProt entries cited, without tags or fusion partners.
UniProt P70340: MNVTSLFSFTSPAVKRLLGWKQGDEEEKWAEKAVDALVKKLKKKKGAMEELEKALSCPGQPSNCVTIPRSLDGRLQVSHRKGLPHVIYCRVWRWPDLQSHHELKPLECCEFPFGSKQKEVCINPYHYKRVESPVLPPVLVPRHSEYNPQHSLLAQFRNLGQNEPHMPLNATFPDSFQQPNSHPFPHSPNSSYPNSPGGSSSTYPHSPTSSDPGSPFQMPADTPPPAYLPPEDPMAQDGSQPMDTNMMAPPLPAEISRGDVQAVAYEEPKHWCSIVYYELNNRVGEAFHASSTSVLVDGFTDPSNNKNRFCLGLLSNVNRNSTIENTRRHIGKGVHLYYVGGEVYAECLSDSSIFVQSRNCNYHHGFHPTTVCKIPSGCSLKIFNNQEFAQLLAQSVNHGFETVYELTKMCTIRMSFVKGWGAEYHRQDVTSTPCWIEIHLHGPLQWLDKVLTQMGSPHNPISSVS

How the values were obtained:
[1] = molecular target: T1, ubiquitin carboxyl-terminal hydrolase isozyme L3 (mouse (endogenous in BMSCs)) (UniProt Q9JKB1); experiment: co-IP; BMSC lysate in IP buffer, 1 mg total protein pre-cleared with protein-G agarose; 2 ug anti-UCHL3 or anti-SMAD1 antibody (IgG as negative control), 4 °C 2 h, then protein-G agarose overnight at 4 °C; Western blotting of the endogenous partner
T1 sequence: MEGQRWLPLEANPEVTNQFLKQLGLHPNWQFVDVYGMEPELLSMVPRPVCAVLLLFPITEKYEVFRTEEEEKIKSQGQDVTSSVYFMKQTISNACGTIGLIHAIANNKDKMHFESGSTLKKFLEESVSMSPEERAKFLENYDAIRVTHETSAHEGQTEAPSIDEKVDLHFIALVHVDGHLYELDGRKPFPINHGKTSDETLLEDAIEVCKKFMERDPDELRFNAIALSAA

[2] = molecular target: mothers against decapentaplegic homologue 1 (mouse (endogenous in BMSCs)) (UniProt P70340); experiment: as above

binding [1] | binding [2] | Molecule
binds |  | mothers against decapentaplegic homologue 1 (from UniProt P70340 1-465)
 | binds | ubiquitin carboxyl-terminal hydrolase isozyme L3 (enzyme, UniProt Q9JKB1 1-230) MEGQRWLPLEANPEVTNQFLKQLGLHPNWQFVDVYGMEPELLSMVPRPVCAVLLLFPITEKYEVFRTEEEEKIKSQGQDVTSSVYFMKQTISNACGTIGLIHAIANNKDKMHFESGSTLKKFLEESVSMSPEERAKFLENYDAIRVTHETSAHEGQTEAPSIDEKVDLHFIALVHVDGHLYELDGRKPFPINHGKTSDETLLEDAIEVCKKFMERDPDELRFNAIALSAA
